Experiment [1] has as its target NF-κB subunit p65 (endogenous) (human (endogenous in 293T)) (UniProt Q04206). Nature of the experiment: co-IP.
Experiment [2] has as its target NF-κB subunit p65 expressed from a plasmid (pP65) (UniProt Q04206). Description: co-IP.

Protein sequences, listed by entry. Tags and fused reporters are not part of them.
UniProt Q04206: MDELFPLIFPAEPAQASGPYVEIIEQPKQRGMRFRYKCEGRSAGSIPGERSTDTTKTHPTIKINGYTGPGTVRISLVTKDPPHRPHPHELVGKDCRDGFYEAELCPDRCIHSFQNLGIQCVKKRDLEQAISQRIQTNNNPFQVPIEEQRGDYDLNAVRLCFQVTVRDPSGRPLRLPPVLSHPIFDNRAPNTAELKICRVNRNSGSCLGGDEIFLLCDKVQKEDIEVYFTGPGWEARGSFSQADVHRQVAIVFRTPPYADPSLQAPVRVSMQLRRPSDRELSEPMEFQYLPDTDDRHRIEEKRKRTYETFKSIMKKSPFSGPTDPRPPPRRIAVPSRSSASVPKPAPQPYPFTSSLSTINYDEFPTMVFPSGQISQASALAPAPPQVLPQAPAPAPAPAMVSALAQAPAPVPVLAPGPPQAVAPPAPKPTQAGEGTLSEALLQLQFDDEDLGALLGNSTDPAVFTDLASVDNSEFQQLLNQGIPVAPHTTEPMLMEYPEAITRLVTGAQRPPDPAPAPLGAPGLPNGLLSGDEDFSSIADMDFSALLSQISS
UniProt P22677: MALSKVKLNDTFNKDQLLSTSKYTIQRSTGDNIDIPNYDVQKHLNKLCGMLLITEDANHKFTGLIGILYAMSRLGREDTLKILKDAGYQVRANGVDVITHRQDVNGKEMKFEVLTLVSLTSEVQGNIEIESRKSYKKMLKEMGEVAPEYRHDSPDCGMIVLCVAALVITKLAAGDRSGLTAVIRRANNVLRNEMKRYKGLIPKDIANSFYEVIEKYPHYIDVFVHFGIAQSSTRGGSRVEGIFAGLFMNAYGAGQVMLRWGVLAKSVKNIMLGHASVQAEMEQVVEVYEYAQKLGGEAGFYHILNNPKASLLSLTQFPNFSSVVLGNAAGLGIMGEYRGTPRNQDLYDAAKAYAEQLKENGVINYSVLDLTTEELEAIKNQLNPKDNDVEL

The values below come from paper doi:10.1101/2020.02.11.944363.

These are yes or no findings as the source states them, for the method shown. Binding seen in cells or lysates may run through a third protein. Some binding calls cover weakened binding; strength is not graded here.

Regarding “bRSV nucleoprotein (N protein) (from UniProt P22677 1-391)”, the binding result in experiment [1] and in experiment [2] was “binds” each time.

B1: bRSV phosphoprotein (P protein) (protein, UniProt P33454 1-241)
chain: MEKFAPEFHGEDANTKATKFLESLKGKFTSSKDSRKKDSIISVNSIDIELPKESPITSTNHNINQPSEINDTIAANQVHIRKPLVSFKEELPSSENPFTKLYKETIETFDNNEEESSYSYDEINDQTNDNITARLDRIDEKLSEIIGMLHTLVVASAGPTAARDGIRDAMVGLREEMIEKIRSEALMTNDRLEAMARLRDEESEKMTKDTSDEVKLTPTSEKLNMVLEDESSDNDLSLEDF
With B1, the binding result in experiment [1] and in experiment [2] was “binds” throughout.
